Assay results from article PMC9973269.
No constants are given. Whether binding was seen depends on the method and setting. Binding seen in cells or lysates may run through a third protein. Binding can be weak; no strength is given. Where a sequence is shown, tags or fusion partners need not be part of it.

Biological target: T1, GST-ScaA (passenger domain of ScaA, ScaA_(30-1000), Boryong genotype) (Orientia tsutsugamushi (Boryong genotype))
T1 sequence: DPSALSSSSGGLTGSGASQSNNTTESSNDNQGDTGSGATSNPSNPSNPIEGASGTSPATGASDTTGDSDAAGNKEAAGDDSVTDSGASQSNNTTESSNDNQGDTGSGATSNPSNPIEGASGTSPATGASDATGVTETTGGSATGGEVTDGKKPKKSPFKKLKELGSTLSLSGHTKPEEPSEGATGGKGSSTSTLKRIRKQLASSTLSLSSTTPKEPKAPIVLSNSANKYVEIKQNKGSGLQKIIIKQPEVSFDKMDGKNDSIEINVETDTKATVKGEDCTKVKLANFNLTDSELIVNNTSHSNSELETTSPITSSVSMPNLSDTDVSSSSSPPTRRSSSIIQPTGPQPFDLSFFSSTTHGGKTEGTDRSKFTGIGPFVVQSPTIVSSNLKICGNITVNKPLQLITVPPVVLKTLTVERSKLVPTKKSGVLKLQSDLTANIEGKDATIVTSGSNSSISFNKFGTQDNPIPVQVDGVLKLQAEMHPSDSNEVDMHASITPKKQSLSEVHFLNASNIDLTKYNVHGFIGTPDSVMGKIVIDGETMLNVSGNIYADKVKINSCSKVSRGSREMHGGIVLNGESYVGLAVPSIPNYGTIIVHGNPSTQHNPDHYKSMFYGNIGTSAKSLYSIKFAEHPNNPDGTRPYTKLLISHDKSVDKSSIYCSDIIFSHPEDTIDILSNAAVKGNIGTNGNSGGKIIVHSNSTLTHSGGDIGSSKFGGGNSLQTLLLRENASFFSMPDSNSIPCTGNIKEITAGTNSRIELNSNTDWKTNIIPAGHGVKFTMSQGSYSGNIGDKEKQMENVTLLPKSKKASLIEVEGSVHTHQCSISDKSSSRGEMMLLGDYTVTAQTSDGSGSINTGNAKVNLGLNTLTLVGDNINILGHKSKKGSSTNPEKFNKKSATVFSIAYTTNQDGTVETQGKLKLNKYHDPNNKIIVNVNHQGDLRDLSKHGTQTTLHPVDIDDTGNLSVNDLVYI
Test: pull-down; GST fusion proteins bound to glutathione beads, incubated with lysate (NP-40 buffer) of cells transfected with full-length or truncated vMLL5 at 4°C for 4 h; washed four times with 20 mM HEPES pH 7.4, 100 mM NaCl, 1% NP-40; immunoblot with anti-HA; only the target purified

For “vMLL5 (alternative splicing variant of mixed-lineage leukemia 5), full length (human)”, the binding was “binds”.
